# In all, about 580,000 compounds went through this assay and about 6,100 (1.1%) were called active. Inconclusive means that the source gave no clear call. Such entries were picked first, then a sample of the others. Calls follow the shape of the dose curve; as a rule, active = well fitted inhibition curve with a large enough effect; inconclusive = small, poorly fitted or top-dose-only effect, or another doubt; inactive = no such curve, though single readings can be large or run the other way. Where the call is inconclusive, the potency comes from a doubtful curve fit.
# Sequences of proteins named here, by UniProt entry; tags and fusion partners are left off. A change or cut given only in a name is not applied to a line headed by its entry.
# UniProt P18054: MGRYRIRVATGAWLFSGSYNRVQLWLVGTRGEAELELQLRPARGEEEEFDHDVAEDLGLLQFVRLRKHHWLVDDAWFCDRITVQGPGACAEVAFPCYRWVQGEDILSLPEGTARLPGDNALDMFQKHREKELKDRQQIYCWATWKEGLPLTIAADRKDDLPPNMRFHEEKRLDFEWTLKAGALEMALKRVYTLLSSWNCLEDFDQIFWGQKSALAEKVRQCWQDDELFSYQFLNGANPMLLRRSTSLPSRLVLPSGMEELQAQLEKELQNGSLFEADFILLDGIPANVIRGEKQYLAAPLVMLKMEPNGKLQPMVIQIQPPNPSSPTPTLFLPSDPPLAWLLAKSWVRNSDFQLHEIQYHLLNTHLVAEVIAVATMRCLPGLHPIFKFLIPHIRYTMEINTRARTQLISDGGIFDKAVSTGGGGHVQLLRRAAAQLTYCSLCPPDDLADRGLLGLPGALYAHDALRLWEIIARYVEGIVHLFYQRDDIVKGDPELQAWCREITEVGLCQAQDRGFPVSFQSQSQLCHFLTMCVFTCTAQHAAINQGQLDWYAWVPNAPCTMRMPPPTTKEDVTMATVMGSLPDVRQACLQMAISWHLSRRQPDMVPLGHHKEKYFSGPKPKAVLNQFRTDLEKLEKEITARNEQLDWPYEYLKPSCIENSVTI
# Molecular target: Polyunsaturated fatty acid lipoxygenase ALOX12 (Homo sapiens) (UniProt P18054)
# Experiment: Primary qHTS assay for inhibitors of human arachidonate 12S-lipoxygenase (ALOX12): Round 2
# Settings: purified 12hLO, xylenol orange hydroperoxide absorbance; activity change, negative = inhibition: at 108 µM (top of the series) unless noted
# Procedure, shortened: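 Purified human 12hLO at 150 nM in 25 mM Hepes, 0.01% Triton X-100, pH 7.0, preincubated 15 min at room temperature with compound. Reaction started with 40 uM arachidonic acid, 30 min at room temperature. Hydroperoxide measured by Fe-xylenol orange, 573/405 nm absorbance ratio.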
# % is scaled to controls: 0 for no effect and ±100 for the full control effect; potency is read from the fitted curve at half-maximal effect.
Structure (SMILES),Potency,"activity change, negative = inhibition"
COc1cc(S(=O)(=O)Nc2ncn[nH]2)ccc1Cl,"inconclusive: 39.8 µM [inhibitor, partial curve, poor fit]",
CCC(=O)/C=C1\Sc2ccc(OC)cc2N1CC,,inactive: 0%
O=C(NC1CC1)c1[nH]c(C(F)(F)F)nc1-c1ccccc1,"inconclusive: 28.2 µM [inhibitor, partial curve, poor fit]",
Cc1cccc(Oc2ccc(NC(=O)C3CC=CCC3C(=O)O)cc2)c1 (stereo not given),,inactive: -11.6%
CN1CCN(c2nc3ccccc3nc2C(C#N)C(=O)NCc2ccccc2)CC1 (stereo not given),"inconclusive: 15.8 µM [inhibitor, partial curve, poor fit]",
Cc1nonc1NC(=O)CSc1cn[nH]n1,,inactive: 1.47%
COc1ccc(-c2nc3cnccn3c2NC2CCCCC2)cc1-c1cccc(Cl)c1,active: 7.94 µM,
CSc1nnc2c(n1)OC(c1ccsc1)N(C(C)=O)c1ccccc1-2 (stereo not given),"inconclusive: 141 µM [inhibitor, single point]",
CCN(CC)C(=O)CSc1nc2c(sc(=S)n2Cc2ccco2)c(=O)n1-c1ccccc1,"inconclusive: 50.1 µM [inhibitor, partial curve, poor fit]",
Cc1ccc(C)c(S(=O)(=O)N/N=C/c2ccc(C(=O)O)cc2)c1,,inactive: -4.47%
CCOC(=O)[C@H](CCc1ccccc1)N[C@@H](C)C(=O)N1[C@@H](C(=O)O)C[C@@H]2CCC[C@@H]21,,inactive: -8.87% [at 57.4 µM]
Cc1cc(C)c(OCC(=O)NCC(c2ccco2)N2CCCCC2)c(C)c1 (stereo not given),"inconclusive: 112 µM [inhibitor, single point]",
CCOc1cc(OCC)cc(C(=O)Nc2ccc(N3CCN(C(=O)c4ccccc4C)CC3)cc2)c1,"inconclusive: 141 µM [inhibitor, partial curve, poor fit]",
COc1ccccc1CNC(=O)Cc1ccccc1,"inconclusive: 0.316 µM [inhibitor, full curve, poor fit]",
O=C(/C(=N\Nc1ccccc1)Sc1nnnn1-c1ccccc1)c1ccccc1,"inconclusive: 17.8 µM [inhibitor, partial curve, poor fit]",
CNC(=S)N/N=C/c1cccc(Cl)c1,"inconclusive: 1.26 µM [inhibitor, partial curve, poor fit]",
CN(CC(=O)Nc1c(Cl)cccc1Cl)C(=O)CCC1CCCC1,,inactive: 9.33%
Cc1cc(C)n2ncc(C(=O)O)c2n1,"inconclusive: 22.4 µM [inhibitor, full curve, poor fit]",
COc1cc(C2Nc3cc(Cl)c(S(N)(=O)=O)cc3S(=O)(=O)N2)ccc1OCc1ccccc1 (stereo not given),,inactive: 0% [at 57.4 µM]
Cc1c(CC(=O)NCC(=O)O)c(=O)oc2cc3occ(-c4ccccc4)c3cc12,,inactive: 42.6%

# Reformatted: results already given.
Structure (SMILES) | Potency | activity change, negative = inhibition
CCOc1cc(OCC)cc(C(=O)Nc2ccc(N3CCN(C(=O)c4ccccc4C)CC3)cc2)c1 | inconclusive: 141 µM [inhibitor, partial curve, poor fit] | 
COc1ccccc1CNC(=O)Cc1ccccc1 | inconclusive: 0.316 µM [inhibitor, full curve, poor fit] | 

# From PubChem BioAssay AID1671190 (National Center for Advancing Translational Sciences (NCATS), 2021)
